# Results from PubChem BioAssay AID1347075 (National Center for Advancing Translational Sciences (NCATS), 2019).
# Out of some 400,000 compounds screened, about 5,500 (1.4%) were called active. The shares of active, inactive and inconclusive entries below differ from those in the screen. The call rests on the fitted dose curve; in most records, active means well fitted cell-killing curve with a large enough effect; inconclusive means small, poorly fitted or top-dose-only effect, or effect the other way; inactive means flat fitted curve, though single readings scatter. A potency beside an inconclusive call is a rough fit, not a confirmed value.
# Assay: qHTS assay for MDR1-selective chemotherapeutics: Primary screen using the parental adenocarcinoma cell KB-3-1; further: nearly all actives have a fitted effect of over 60% in size
# Settings: KB-3-1 viability, CellTiter-Glo ATP luminescence, 72 h; activity change, negative = cytotoxic: at 46.1 µM (top of the series)
# In short: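 Multi-concentration cytotoxicity screen in KB-3-1 cells grown in DMEM lacking phenol red with 10% FBS. After 72 h at 37 °C with compound, ATP-dependent luminescence was recorded.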
# On the % scale 0 is the no-effect control and ±100 the full control effect; potency means the concentration at half of the fitted maximal effect.
SMILES,Potency,"activity change, negative = cytotoxic"
Cc1ccccc1Cn1nnc2c1C(=O)c1ccccc1C2=O,"inconclusive: 29.1 µM [cytotoxic, single point]",
COc1ccc(CNC(=O)CCS(=O)(=O)c2cc3c(cc2Cl)NC(=O)CO3)cc1,,inactive: -1.34%
COc1ccc(NC(=O)COCc2cc(-c3ccco3)on2)cc1Cl,"inconclusive: 16.4 µM [rising, partial curve]",
O=C(Nc1ccc(F)c(F)c1)c1ccc(=O)n(Cc2ccc(F)cc2)c1,,inactive: -4.57%
CCCCn1c(SCC(=O)Nc2ccc3c(c2)OCO3)nc2c1c(=O)n(C)c(=O)n2C,active: 20.6 µM,
COc1ccc(-c2cnc3c(NC=O)cc(-c4cc(OC)c(OC)c(OC)c4)cn23)cc1OC,"inconclusive: 16.4 µM [cytotoxic, single point]",
C=C1C(=O)OC2C1CCC(C)C1C=CC(=O)C12C (stereo not drawn),"inconclusive: 11.6 µM [cytotoxic, partial curve]",
NC(=S)Nc1cc2ccccc2c2ccccc12,,inactive: -4.29%
Cc1ccc(S(=O)(=O)NCC(C)n2cncn2)cc1C (stereo not drawn),"inconclusive: 0.0046 µM [cytotoxic, full curve]",
O=c1[nH]c2ccc(Cl)cc2[nH]1,"inconclusive: 23.1 µM [cytotoxic, single point]",
CC(C)Oc1ccc(CNC(=O)Oc2ccccc2)cc1,"inconclusive: 32.6 µM [cytotoxic, single point]",
CCOC(=O)c1[nH]c2ccccc2c1N=CN(C)C,,inactive: 10.3%
c1ccc(C[C@H]2CNCCN2CCCCC2CCCCC2)cc1,"inconclusive: 8.2 µM [cytotoxic, partial curve, poor fit]",
Cc1cc(C)nc(N2CCCC(C(=O)NCCc3ccc(F)cc3)C2)n1 (stereo not drawn),,inactive: -1.85%
COC(=O)C1CCN(C2=C(NS(=O)(=O)c3ccc(Cl)cc3)C(=O)c3ccccc3C2=O)CC1,"inconclusive: 29.1 µM [cytotoxic, single point]",
CC[C@H](C)C1OC(=O)[C@@H](C)[C@@H](CC)NC(=O)[C@H](C)N(C)C(=O)C(C)(C)C(=O)C(C)NC(=O)[C@H](Cc2ccc(OC)cc2)N(C)C(=O)[C@H](C(C)C)N(C)C(=O)CNC(=O)[C@H](CC(C)C)N(C)C(=O)CNC1=O (stereo partly drawn),active: 0.206 µM,
CCc1ccc2c(c1)c(=O)c(S(=O)(=O)c1ccc(F)cc1)cn2CC(=O)Nc1ccccc1OC,,inactive: 7.33%
Cc1ccc(NC(=O)c2oc3ccccc3c2NC(=O)C2CCCCC2)cc1,,inactive: -4.47%
Oc1cccc(/C=N/Nc2cc(N3CCCC3)nc(N3CCCC3)n2)c1,"inconclusive: 3.66 µM [rising, full curve]",
Cc1ccccc1CNC(=O)CCCC(=O)n1nc(C)c2ccccc21,"inconclusive: 29.1 µM [rising, partial curve, poor fit]",
C/C(=N\NC(=O)c1cc(-c2cccnc2)nc2ccccc12)c1ccc(O)cc1O,"inconclusive: 4.61 µM [cytotoxic, full curve]",
Cc1cc(NC(=O)CS(=O)(=O)c2cn(Cc3cccc(Cl)c3)c3ccccc23)no1,"inconclusive: 23.1 µM [cytotoxic, single point]",

# In the list so far, these contain an NH in an aromatic ring:
SMILES,Potency,"activity change, negative = cytotoxic"
O=c1[nH]c2ccc(Cl)cc2[nH]1,"inconclusive: 23.1 µM [cytotoxic, single point]",
CCOC(=O)c1[nH]c2ccccc2c1N=CN(C)C,,inactive: 10.3%

# (more compounds)

SMILES,Potency,"activity change, negative = cytotoxic"
COCC1CCN(C(=O)c2cc(COc3ccc(OC)cc3Cl)on2)C1 (stereo not drawn),"inconclusive: 6.51 µM [rising, single point]",
COc1ccccc1N1CCN(C(=O)c2cc(-c3ccccc3)on2)CC1,,inactive: -3.56%
Cc1ccc(NC(=S)N2CCN(S(=O)(=O)c3ccccc3)CC2)cc1C,,inactive: 3%
CC(Oc1ccc(C#N)cc1)C(=O)N1CC=C(c2ccccc2)CC1 (stereo not drawn),active: 16.4 µM,
COc1ccc(-c2nc(-c3ccccc3OC)no2)cc1OC,"inconclusive: 3.66 µM [rising, full curve]",
Oc1c(CN2CCCC2)cc(COCc2ccccc2)c2cccnc12,"inconclusive: 2.59 µM [cytotoxic, partial curve, poor fit]",
CCCCn1c(N)c(N(CCOC)C(=O)CCCc2nc3ccccc3c(=O)[nH]2)c(=O)[nH]c1=O,"inconclusive: 29.1 µM [cytotoxic, partial curve, poor fit]",
CCn1ncc(C2=NOC(C(=O)NCc3ccc(Cl)cc3)C2)c1C (stereo not drawn),active: 2.31 µM,
CCOc1ccc2nc(/N=C/c3c(C)[nH]n(-c4ccccc4)c3=O)sc2c1,"inconclusive: 25.9 µM [cytotoxic, single point]",
COc1ccc(/C=C\C(=O)c2c(O)ccc3c(C)cc(=O)oc23)cc1,active: 23.1 µM,
CN1CCN(C(=O)c2cc(COc3c(F)cccc3F)on2)CC1c1ccccc1 (stereo not drawn),"inconclusive: 29.1 µM [rising, single point]",
CO/N=C/c1ccc(N2CCN(C(=O)c3cccc(C(F)(F)F)c3)CC2)c([N+](=O)[O-])c1,"inconclusive: 20.6 µM [cytotoxic, single point]",
Cc1cc(C(=O)COc2cccnc2[N+](=O)[O-])c(C)n1Cc1cccs1,"inconclusive: 29.1 µM [cytotoxic, single point]",
CC1CCN(Cc2c(C(=O)N/N=C/c3cc(Br)ccc3O)nnn2-c2nonc2N)CC1,"inconclusive: 2.31 µM [cytotoxic, full curve]",
COc1ccc(CN([C@H](CO)CC(C)C)S(=O)(=O)N(Cc2ccccc2)[C@H](CO)CC(C)C)cc1,"inconclusive: 29.1 µM [cytotoxic, single point]",
O=C(c1ccccc1F)n1c2c(c3ccccc31)CCCC2,"inconclusive: 29.1 µM [cytotoxic, single point]",
N#CC(=C(O)COC(=O)CCCNC(=O)c1ccc(Cl)cc1)c1nc2ccccc2[nH]1,,inactive: 2.22%
CC(C)C(NC(=O)CSc1ccc(Cl)cc1)C(C)C,,inactive: -2.6%
Cc1ccc(C)c(Cn2nnc3c(=O)[nH]c(C4CCN(C(=O)c5cccs5)CC4)nc32)c1,,inactive: 0%
O=C(/C=C/c1ccc(Cl)cc1)c1ccc([N+](=O)[O-])o1,"inconclusive: 32.6 µM [rising, single point]",
O=C(Nc1ccc2c(c1)CCCN2C(=O)c1cccs1)c1ccccc1C(F)(F)F,"inconclusive: 23.1 µM [cytotoxic, single point]",
